The campaign covered roughly 300,000 compounds. About 5,400 (1.8%) were called active. The shares of active, inactive and inconclusive entries below differ from those in the screen. Calls come from the whole dose curve; tested in HEK293 cells. Potencies of inconclusive entries are doubtful fits and often do not repeat.
Experiment: qHTS for inhibitors of binding or entry into cells for Marburg Virus
Details: Marburg virus pseudotyped entry inhibition, cell reporter; activity change, negative = inhibition: at 37.8 µM (top of the series) unless noted
% is set by controls: 0 for no effect and ±100 for the full control effect; potency is the fitted concentration of half-maximal effect.

With `O=C(Nc1ccc(-c2nc3ccccc3s2)cc1)c1cc(-n2cnnc2)ccc1Cl` as the compound, how does the Potency read?
Its Potency is inconclusive: 23.1 µM [inhibitor, single point].

For `CCOCCCn1c(=N)c(C(=O)NC(C)c2ccccc2)cc2c(=O)n3cc(C)ccc3nc21` (stereo unspecified), which “activity change, negative = inhibition” value is on record?
The value was inactive: -15% [at 46.1 µM].

Which “activity change, negative = inhibition” value does the source give for `CCC(C)Sc1nnc(CSc2nc(C)cc(C)n2)n1C` (stereo unspecified) here?
Its value is inactive: -3.66% [at 46.1 µM].

With `Cc1cccc(OCC(=O)Nc2ccccc2F)c1` as the compound, how does the Potency read?
The Potency was inconclusive: 35.5 µM [inhibitor, single point].

For `O=C1NCCCN1Cc1ccc(F)cc1`, which “activity change, negative = inhibition” value is on record?
Its value is inactive: -0.228%.

Which Potency does the source give for `COc1cccc(CN(C)C(=O)c2cccc(S(=O)(=O)N3CCN(Cc4ccccc4)CC3)c2)c1OC` here?
The Potency was inconclusive: 10 µM [inhibitor, partial curve, poor fit].

For `CCOC(=O)c1ccc(NC(=O)Nc2ccc(S(N)(=O)=O)cc2)cc1`, which “activity change, negative = inhibition” value is on record?
The value was inactive: 4.99%.

Which Potency does the source give for `Cc1ccc(-c2cn3cc([N+](=O)[O-])ccc3n2)cc1` here?
The Potency was active: 3.66 µM.

For `Cc1ccc(C(=O)NCC(=O)OC(C)C(=O)NC2CCCc3ccccc32)cc1` (stereo unspecified), which “activity change, negative = inhibition” value is on record?
Its value is inactive: 2.4%.

Which “activity change, negative = inhibition” value does the source give for `CCCn1c(C)cc(/C=C(\C#N)C(=O)O)c1C` here?
Its value is inactive: 1.68%.

With `CC(=O)N(Cc1ccco1)c1nc(C(=O)Nc2ccc(Cl)cc2)c(C)s1` as the compound, how does the “activity change, negative = inhibition” value read?
The value was inactive: -5.31%.

For `COc1ccc(S(=O)(=O)NCC(c2cccnc2)N2CCN(c3ccc(F)cc3)CC2)cc1C` (stereo unspecified), which Potency is on record?
Its Potency is inconclusive: 12.6 µM [inhibitor, partial curve, poor fit].

With `COCCN(CC(=O)NC1CCCCC1)C(=O)/C=C/C(=O)c1ccc(OC)cc1O` as the compound, how does the Potency read?
The Potency was active: 11.2 µM.

For `CCOc1ccc(NC(=O)N2CCC(c3nc4ccccc4[nH]3)CC2)cc1`, which Potency is on record?
Its Potency is inconclusive: 0.562 µM [activator, full curve, poor fit].

Which Potency does the source give for `Cn1ccnc1CN1CCN(C(=O)c2cc(COc3ccc(F)c(F)c3)on2)CC1` here?
Its Potency is inconclusive: 35.5 µM [activator, single point].

Which Potency does the source give for `COc1cccc(NC(=O)Cn2c(=O)c3c(ncn3Cc3ccccc3)n(Cc3ccccc3)c2=O)c1` here?
The Potency was inconclusive: 1 µM [inhibitor, full curve, poor fit].

For `COc1ccc(-c2ccc(SCC(=O)NCc3ccco3)nn2)cc1`, which “activity change, negative = inhibition” value is on record?
Its value is inactive: -14.5%.

For `CCOC(=O)C1=NOC(CNC(=O)c2c(-c3ccccc3Cl)noc2C)C1` (stereo unspecified), which Potency is on record?
Its Potency is inconclusive: 0.794 µM [activator, full curve].

With `CCn1c(SCC(=O)NCc2ccco2)nc2cccnc21` as the compound, how does the Potency read?
The Potency was inconclusive: 0.316 µM [inhibitor, partial curve, poor fit].

With `O=C(CSc1nnc(CNC(=O)c2cccc(C(F)(F)F)c2)o1)NCC1CCCO1` (stereo unspecified) as the compound, how does the Potency read?
Its Potency is inconclusive: 0.891 µM [activator, full curve, poor fit].

Which “activity change, negative = inhibition” value does the source give for `COC(=O)C1C2C=CC3(CN(Cc4ccco4)C(=O)C13)O2` (stereo unspecified) here?
The value was inactive: 3.85%.

With `Cc1ncc([N+](=O)[O-])n1CC(=O)Nc1ccc(F)cc1F` as the compound, how does the Potency read?
The Potency was inconclusive: 3.55 µM [activator, single point].

Which Potency does the source give for `COc1ccc2[nH]c3ccccc3c2c1` here?
Its Potency is inconclusive: 0.447 µM [activator, partial curve, poor fit].

For `COc1cc(-c2nc3ccc4ccccc4c3c3c2CCC3)cc(OC)c1OC`, which “activity change, negative = inhibition” value is on record?
The value was inactive: -17.4%.

Which “activity change, negative = inhibition” value does the source give for `CCN(CC)CCNc1ncnc2c1sc1nc(N3CCOCC3)c3c(c12)CC(C)(C)SC3` here?
Its value is inactive: -8.21%.

With `Cc1ccc(CSCC(=O)N(C)CC(=O)Nc2c(Cl)cccc2Cl)cc1` as the compound, how does the “activity change, negative = inhibition” value read?
The value was inactive: 12.8%.

With `Cc1ccc(C(=O)CSc2nsc(C)c2C#N)cc1` as the compound, how does the “activity change, negative = inhibition” value read?
The value was inactive: -0.211%.

For `CCc1cccc(C)c1NC(=S)N1CCCC1C(=O)O` (stereo unspecified), which “activity change, negative = inhibition” value is on record?
The value was inactive: 17%.

For `COc1cccc(-c2nnc(SCC(=O)N3CCCCC3)o2)c1`, which Potency is on record?
Its Potency is inconclusive: 11.2 µM [activator, partial curve, poor fit].

Which Potency does the source give for `COc1cccc(NC(=S)NC(=O)c2cccnc2)c1` here?
The Potency was inconclusive: 10 µM [activator, single point].

For `Cc1ccc(C(=O)N/C(=C/c2ccco2)C(=O)NCCc2c[nH]c3ccccc23)cc1`, which Potency is on record?
Its Potency is inconclusive: 0.1 µM [activator, full curve, poor fit].

Which “activity change, negative = inhibition” value does the source give for `Cn1cc(/C=C2\SC(=S)N(N3CCOCC3)C2=O)c2ccccc21` here?
Its value is inactive: 16.4% [at 46.1 µM].

For `Nn1c(=O)c2ccccc2n2c(SCc3ccccc3)nnc12`, which “activity change, negative = inhibition” value is on record?
The value was inactive: 0.735%.

With `Cn1c(=O)[nH]c(=O)c2c1nc(NC1CCCCC1)n2Cc1ccccc1` as the compound, how does the Potency read?
The Potency was inconclusive: 3.55 µM [activator, single point].

Which Potency does the source give for `CCc1ccc(NC(=O)COC(=O)CCC2CCCC2)cc1` here?
The Potency was inconclusive: 6.31 µM [activator, partial curve, poor fit].

Which Potency does the source give for `CCOC(=O)C1(CC)NC(c2cccc(F)c2)C2C(=O)N(CC)C(=O)C21` (stereo unspecified) here?
The Potency was inconclusive: 35.5 µM [activator, single point].

For `Cn1cc(C(=O)c2ccc(Cl)cc2)cc1-c1nc2ccccc2n1C`, which Potency is on record?
The Potency was inconclusive: 10 µM [inhibitor, partial curve, poor fit].

With `C(=N\Nc1nc2ccccc2s1)/c1ccccn1` as the compound, how does the Potency read?
The Potency was inconclusive: 1.26 µM [inhibitor, full curve, poor fit].

For `C/C(=N/NC(=O)c1cccs1)c1cccs1`, which Potency is on record?
The Potency was inconclusive: 2 µM [activator, full curve, poor fit].

Which Potency does the source give for `O=C(CCCCn1c(=O)[nH]c2ccsc2c1=O)N1CCN(c2cccc(C(F)(F)F)c2)CC1` here?
Its Potency is inconclusive: 35.5 µM [inhibitor, single point].

Which Potency does the source give for `CC(=O)N1CCc2c(sc3c2c(=O)n(-c2cccc(Cl)c2C)c(=O)n3Cc2ccccc2C)C1` here?
Its Potency is inconclusive: 1.12 µM [inhibitor, full curve, poor fit].

With `Nc1cc(=O)[nH]c(=O)n1Cc1ccccc1` as the compound, how does the “activity change, negative = inhibition” value read?
The value was inactive: 1.35%.

For `CCCCCn1c(=O)[nH]c2cc(C(=O)NCCCN3CCCCC3CC)ccc2c1=O` (stereo unspecified), which Potency is on record?
Its Potency is inconclusive: 3.16 µM [inhibitor, partial curve, poor fit].

Which “activity change, negative = inhibition” value does the source give for `COc1ccc(CN(Cc2ccco2)C(=O)COc2ccc(Cl)cc2C)cc1` here?
The value was inactive: 8.72% [at 46.1 µM].

With `Cn1ncc(Br)c1C(=O)N1CCc2ccccc21` as the compound, how does the “activity change, negative = inhibition” value read?
The value was inactive: 6.05%.

Which Potency does the source give for `CC1CCCN(Cc2cccc(Oc3ccccc3)c2)C1` (stereo unspecified) here?
Its Potency is inconclusive: 29.1 µM [inhibitor, single point].

For `CCOC(=O)c1c(-c2ccc(OC)cc2)cn2ccccc12`, which Potency is on record?
Its Potency is inconclusive: 6.31 µM [inhibitor, single point].

For `CCOc1ccc(NC(=O)c2ccc3[nH]c(C)cc(=O)c3c2)cc1`, which “activity change, negative = inhibition” value is on record?
The value was inactive: -19.8% [at 46.1 µM].

With `CCCOC(=O)C1=C(C)NC2=C(C(=O)C(C(=O)OC)C(C)C2)C1c1ccc(N(CC)CC)cc1` (stereo unspecified) as the compound, how does the Potency read?
Its Potency is inconclusive: 17.8 µM [inhibitor, single point].

With `CN(C)S(=O)(=O)c1ccc2c(c1)nc(CCC(=O)Nc1ccc(N3CCOCC3)cc1)n2C` as the compound, how does the Potency read?
The Potency was inconclusive: 1.12 µM [activator, full curve, poor fit].

With `N=c1c2ccccc2nnn1-c1cccc(C(F)(F)F)c1` as the compound, how does the “activity change, negative = inhibition” value read?
Its value is inactive: -3.39%.

With `CCOC(=O)c1c(NC(=O)/C=C/c2ccc(C)o2)sc(C)c1C` as the compound, how does the “activity change, negative = inhibition” value read?
The value was inactive: 16.4%.

For `COc1ccc(NC(=O)Cn2cc(S(=O)(=O)N3CCC(C)CC3)c3ccccc3c2=O)cc1Cl`, which Potency is on record?
The Potency was inconclusive: 25.1 µM [inhibitor, single point].

With `CC1CCCCC1NC(=O)NC(=O)COC(=O)c1nccnc1N` (stereo unspecified) as the compound, how does the Potency read?
Its Potency is inconclusive: 1 µM [inhibitor, partial curve, poor fit].

With `CN(C)c1ccc(C2SCCN2C(=O)c2ccc([N+](=O)[O-])cc2)cc1` (stereo unspecified) as the compound, how does the Potency read?
Its Potency is inconclusive: 35.5 µM [activator, single point].

Which “activity change, negative = inhibition” value does the source give for `Cc1ccc(N2CCN(/N=C/c3cccnc3)CC2)cc1` here?
The value was inactive: 8.75% [at 46.1 µM].

Which Potency does the source give for `Cc1ccc(CN(C)C(=O)c2cccc(S(=O)(=O)N3CCc4ccccc43)c2)cc1` here?
The Potency was inconclusive: 17.8 µM [inhibitor, single point].

Which results are given for `CC1CCN=C(N)S1` (stereo unspecified)?
Potency: inconclusive: 14.6 µM [inhibitor, single point]; activity change, negative = inhibition: inconclusive: 48.2% [activator]

Which “activity change, negative = inhibition” value does the source give for `COc1ccc(-c2cc(C(F)(F)F)n3nc(C(=O)Nc4cc(C(F)(F)F)ccc4Cl)cc3n2)cc1OC` here?
Its value is inactive: 7.51% [at 46.1 µM].

With `O=C(COC(=O)CCC(=O)c1ccccc1)NCCc1ccccc1` as the compound, how does the Potency read?
Its Potency is inconclusive: 1.26 µM [inhibitor, single point].

Which Potency does the source give for `CCOc1cc(-c2c(C)c(CC)nc(N)c2C#N)ccc1O` here?
The Potency was inconclusive: 3.16 µM [inhibitor, full curve, poor fit].

Which Potency does the source give for `Cc1ccc(NS(=O)(=O)c2ccc(CCC(=O)NCc3ccccn3)cc2)cc1` here?
The Potency was inconclusive: 11.2 µM [inhibitor, partial curve, poor fit].

With `O=C(CSc1ncnc2sc3c(c12)CCCC3)N1CCC(c2noc3ccc(F)cc23)CC1` as the compound, how does the Potency read?
The Potency was inconclusive: 9.2 µM [inhibitor, partial curve, poor fit].

Which Potency does the source give for `CCOc1ccc(NC(=S)c2ccncc2)cc1` here?
Its Potency is inconclusive: 0.891 µM [inhibitor, full curve, poor fit].

Which Potency does the source give for `CCCCn1c(N)c(N(CCC(C)C)C(=O)c2ccc(N3CCCC3=O)cc2)c(=O)[nH]c1=O` here?
The Potency was inconclusive: 2.82 µM [activator, partial curve, poor fit].

For `Cc1ccc(C(=O)OCC(=O)N2CCCC2)cc1`, which Potency is on record?
Its Potency is inconclusive: 20 µM [activator, partial curve, poor fit].

With `O=C(/C=C/c1ccco1)N1CCc2ccccc21` as the compound, how does the Potency read?
Its Potency is inconclusive: 7.08 µM [inhibitor, partial curve, poor fit].

For `N#C/C(=C\c1ccc(O)c(O)c1)C(=O)NCCCc1ccccc1`, which Potency is on record?
The Potency was inconclusive: 10 µM [inhibitor, partial curve].

Which “activity change, negative = inhibition” value does the source give for `Cc1ccc2oc3c(c(=O)c2c1)C(c1ccccc1F)N(c1ccccn1)C3=O` (stereo unspecified) here?
Its value is inactive: -2.33% [at 46.1 µM].

With `CN(Cc1ccon1)Cc1cn(C)nc1-c1ccc2c(c1)OCCO2` as the compound, how does the Potency read?
Its Potency is inconclusive: 10 µM [inhibitor, single point].
